No constants are given. Whether binding was seen depends on the method and setting.
Molecular target: T1, antiterminator protein Q from phage λ (λQ), full length (phage λ) (UniProt P03047)
T1 sequence: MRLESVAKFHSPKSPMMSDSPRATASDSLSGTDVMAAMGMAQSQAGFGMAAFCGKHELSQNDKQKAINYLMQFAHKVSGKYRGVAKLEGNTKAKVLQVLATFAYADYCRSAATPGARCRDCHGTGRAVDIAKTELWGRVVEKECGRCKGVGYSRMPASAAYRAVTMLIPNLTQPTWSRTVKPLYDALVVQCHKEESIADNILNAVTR
Experiment: NMR titration; [1H,15N]-HSQC or BEST-TROSY titration of the 15N-labeled protein with the unlabeled partner; 298 K; 50 mM MOPS pH 6.5, 300 mM NaCl, 150 mM D-glucose, 5 mM DTT; both purified

Sequences of proteins named here, by UniProt entry; tags and fusion partners are left off.
UniProt P0AFG0: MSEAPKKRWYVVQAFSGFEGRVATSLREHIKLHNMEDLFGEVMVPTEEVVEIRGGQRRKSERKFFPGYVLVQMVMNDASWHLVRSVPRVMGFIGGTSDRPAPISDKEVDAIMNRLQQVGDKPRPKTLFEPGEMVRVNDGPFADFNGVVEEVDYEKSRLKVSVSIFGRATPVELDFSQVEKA

Row | binding | Substance
1 | no binding | N-utilization substance B (NusB) (from UniProt P0A780 1-139)
2 | no binding | N-utilization substance G (NusG) (from UniProt P0AFG0 1-181)

Source: article PMC7171158
